Measurements: the supplement of paper PMC9015667
Counter-ions that a name gives are not always drawn. This is one part of the list. Many values rest on one well or one pass, so single values are uncertain.

The compounds below were run on UACC62P (parental melanoma line) (assay: reduction in cell viability relative to untreated/vehicle; higher = more growth inhibition). Settings: 200 nM; 72 h.
In the case of Nc1ccccc1NC(=O)c1ccc(CNc2nccc(-c3cccnc3)n2)cc1 [Mocetinostat], the “reduction in cell viability” value is reported as 21.7%.
For O=C1c2c(O)cc(O)cc2OC(c2ccc(O)c(O)c2)C1O (centres undefined) [Taxifolin], the “reduction in cell viability” value was under 0%.
In the case of CS(=O)(=O)Oc1ccc2c(NC(N)=O)c(C(=O)c3ccc(Cl)cc3Cl)oc2c1 [Lirimilast], the “reduction in cell viability” value is reported as 18.1%.
In the case of CC1CNc2c(cccc2S(=O)(=O)N[C@@H](CCCNC(=N)N)C(=O)N2CC[C@@H](C)C[C@@H]2C(=O)O)C1 (some centres undefined) [Argatroban], the “reduction in cell viability” value is reported as 4.09%.
In the case of NC(=O)c1ncn([C@@H]2O[C@H](CO)[C@@H](O)[C@H]2O)n1 [Ribavirin], the “reduction in cell viability” value is reported as under 0%.
CC(C)C[C@H](NC(=O)[C@@H](O)[C@H](N)Cc1ccccc1)C(=O)O [Ubenimex] was tested, and the “reduction in cell viability” value was under 0%.
In the case of O=C(NCc1ccccc1)[C@H](Cc1ccccc1)NC(=O)[C@H]1O[C@@H]1C(=O)NCCc1ccc(O)cc1, the “reduction in cell viability” value is reported as under 0%.
In the case of Cc1c(C(=O)NN2CCCCC2)nn(-c2ccc(Cl)cc2Cl)c1-c1ccc(Cl)cc1 [Rimonabant], the “reduction in cell viability” value is reported as under 0%.
CC1(C)NC(=O)N(c2ccc([N+](=O)[O-])c(C(F)(F)F)c2)C1=O [Nilutamide] was tested, and the “reduction in cell viability” value was under 0%.
Cc1csc(-c2nnc(Nc3ccc(Oc4ncccc4-c4ccnc(N)n4)cc3)c3ccccc23)c1 was tested, and the “reduction in cell viability” value was 12.2%.
For c1cc(-c2sc(-c3ccncc3)c(-c3ccncc3)c2-c2ccncc2)ccn1, the “reduction in cell viability” value was under 0%.
c1ccc(CNc2nc(NCc3ccccc3)c3ccccc3n2)cc1 was tested, and the “reduction in cell viability” value was under 0%.
For O=C1NC(=O)/C(=C/c2ccc(-c3ccc(F)cc3O)o2)S1, the “reduction in cell viability” value was 1.45%.
CC(=O)OCC(=O)[C@@]12N=C(C)O[C@@H]1C[C@H]1[C@@H]3CCC4=CC(=O)C=C[C@]4(C)[C@H]3[C@@H](O)C[C@@]12C [Deflazacort] was tested, and the “reduction in cell viability” value was under 0%.
For CN(N=O)C(=O)N[C@@H](C=O)[C@@H](O)[C@H](O)[C@H](O)CO [Streptozocin], the “reduction in cell viability” value was under 0%.
In the case of C=CC(=O)Nc1cccc(Oc2nc(Nc3ccc(N4CCN(C)CC4)cc3OC)ncc2Cl)c1, the “reduction in cell viability” value is reported as under 0%.
For COc1c(C)c2c(c(O)c1C/C=C(\C)CCC(=O)OCCN1CCOCC1)C(=O)OC2 [Mycophenolate mofetil], the “reduction in cell viability” value was 8.92%.
CN1C(=O)C[C@@H](C(=O)N[C@@H](Cc2c[nH]cn2)C(=O)N2CCC[C@H]2C(N)=O)NC1=O [Taltirelin] was tested, and the “reduction in cell viability” value was 7.87%.
CCC(C)N(C)C(=O)c1cc2ccccc2c(-c2ccccc2Cl)n1 (centres undefined) was tested, and the “reduction in cell viability” value was under 0%.
COc1cccc(-c2ccc(NC(=O)C3=C(C(=O)O)CCC3)c(F)c2)c1 [Vidofludimus] was tested, and the “reduction in cell viability” value was under 0%.
With CCOCC(O)COc1ccc(NC(=O)CC[S+](C)C)cc1 (centres undefined) [Suplatast tosilate] the “reduction in cell viability” value was 0.89%.
In the case of CCN(C(=O)c1c(O)c2c(Cl)cccc2n(C)c1=O)c1ccccc1 [Laquinimod], the “reduction in cell viability” value is reported as under 0%.
With CC[C@H]1OC(=O)[C@H](C)[C@@H](O[C@H]2C[C@@](C)(OC)[C@@H](O)[C@H](C)O2)[C@H](C)[C@@H](O[C@@H]2O[C@H](C)C[C@H](N(C)C)[C@H]2O)[C@](C)(O)C[C@@H](C)C(=O)[C@H](C)[C@@H](O)[C@]1(C)O [Erythromycin] the “reduction in cell viability” value was under 0%.
In the case of CN(C)Cc1cccc(N=C(c2ccccc2)c2c(O)[nH]c3cc(C(=O)N(C)C)ccc23)c1, the “reduction in cell viability” value is reported as under 0%.
In the case of COc1ccc(-c2ccc3ncc4c(c3c2)n(-c2ccc(N3CCNCC3)c(C(F)(F)F)c2)c(=O)n4C)cn1, the “reduction in cell viability” value is reported as 91.2%.
For COc1c(OCCCN2CCOCC2)ccc2c1N=C(NC(=O)c1cnc(N)nc1)N1CCN=C21, the “reduction in cell viability” value was under 0%.
With COc1cc(C(=O)NC2CCN(C)CC2)ccc1Nc1ncc2c(n1)N(C1CCCC1)CCC(=O)N2C(C)C the “reduction in cell viability” value was under 0%.
CN1CCC(=C2c3ccccc3C=Cc3ccccc32)CC1 [Cyproheptadine hydrochloride] was tested, and the “reduction in cell viability” value was under 0%.
With CC[C@@]1(O)C(=O)OCc2c1cc1n(c2=O)Cc2cc3cc(O)ccc3nc2-1 [10-hydroxycamptothecin] the “reduction in cell viability” value was 60.9%.
For Nc1nc(-c2nn(Cc3ccccc3F)c3ncccc23)nc(N)c1N1CCOCC1, the “reduction in cell viability” value was under 0%.
With CS(=O)(=O)Nc1ccc([N+](=O)[O-])cc1Oc1ccccc1 [Nimesulide] the “reduction in cell viability” value was under 0%.
CC(C)[N+]1(C)[C@@H]2CC[C@H]1C[C@@H](OC(=O)C(CO)c1ccccc1)C2 (some centres undefined) [Ipratropium bromide hydrate] was tested, and the “reduction in cell viability” value was under 0%.
For CCCCCNC(=N)N/N=C/c1c[nH]c2ccc(OC)cc12 [Tegaserod maleate], the “reduction in cell viability” value was under 0%.
COc1ccc2c(c1)c(CC(=O)O)c(C)n2C(=O)c1ccc(Cl)cc1 [Indomethacin] was tested, and the “reduction in cell viability” value was 2%.
With C[C@H](NC(=O)c1sccc1OCc1ccc(Cl)cc1)c1ccccc1 the “reduction in cell viability” value was 3.06%.
CN(C)CCN1C(=O)c2cccc3cc(N)cc(c23)C1=O [Amonafide] was tested, and the “reduction in cell viability” value was under 0%.
In the case of CCCn1c(=O)c2nc(C34CC5CC(CC3C5)C4)[nH]c2n(CCC)c1=O [Rolofylline], the “reduction in cell viability” value is reported as 2.47%.
For CNC(C)C1CCC(N)C(OC2C(N)CC(N)C(OC3OCC(C)(O)C(NC)C3O)C2O)O1 (centres undefined) [Gentamycin sulfate], the “reduction in cell viability” value was under 0%.
For CCCCCCNC(=O)n1cc(F)c(=O)[nH]c1=O [Carmofur], the “reduction in cell viability” value was 0.75%.
